# According to the supplement of paper PMC6411743:
# ± gives the standard deviation of the averaged measurements. The list shows a part of the results.
# Target: T1, UniProt Q9UPU7 and related entries
# T1 sequence (whole entry): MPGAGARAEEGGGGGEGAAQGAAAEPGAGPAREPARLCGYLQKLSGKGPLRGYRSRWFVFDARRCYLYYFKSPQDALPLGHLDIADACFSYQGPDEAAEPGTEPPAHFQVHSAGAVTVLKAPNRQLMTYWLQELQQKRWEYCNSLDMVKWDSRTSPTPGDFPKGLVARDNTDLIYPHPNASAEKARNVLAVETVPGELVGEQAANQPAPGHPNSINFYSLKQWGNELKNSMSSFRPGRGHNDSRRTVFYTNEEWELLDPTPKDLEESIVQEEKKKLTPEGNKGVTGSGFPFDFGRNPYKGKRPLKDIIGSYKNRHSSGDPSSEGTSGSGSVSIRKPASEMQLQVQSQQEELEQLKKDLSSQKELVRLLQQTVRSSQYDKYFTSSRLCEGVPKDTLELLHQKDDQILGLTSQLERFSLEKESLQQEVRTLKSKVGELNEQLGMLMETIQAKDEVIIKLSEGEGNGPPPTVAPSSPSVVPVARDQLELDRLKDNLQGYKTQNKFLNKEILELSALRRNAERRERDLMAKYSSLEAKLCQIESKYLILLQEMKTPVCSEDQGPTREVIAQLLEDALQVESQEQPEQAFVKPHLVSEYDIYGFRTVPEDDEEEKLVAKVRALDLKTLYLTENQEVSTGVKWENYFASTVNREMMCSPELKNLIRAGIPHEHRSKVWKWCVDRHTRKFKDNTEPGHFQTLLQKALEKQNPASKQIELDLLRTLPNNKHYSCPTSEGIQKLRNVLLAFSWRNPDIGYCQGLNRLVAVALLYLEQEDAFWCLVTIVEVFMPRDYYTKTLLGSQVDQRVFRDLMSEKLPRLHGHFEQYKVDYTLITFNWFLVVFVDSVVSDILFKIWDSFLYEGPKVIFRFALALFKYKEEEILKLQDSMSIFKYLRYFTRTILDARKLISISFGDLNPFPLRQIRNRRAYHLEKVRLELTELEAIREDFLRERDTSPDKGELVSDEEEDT
# Experiment: NP40-soluble protein abundance relative to vehicle (solubility fold change) (ratio); higher = more soluble protein in presence of GTP
# Protocol: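 Solubility proteome profiling in Jurkat crude lysate. Lysate was treated with Mg-GTP (0.1-10 mM) for 10 min at room temperature and 3 min at 37 °C, then solubilised with 0.8% NP40 and benzonase, followed by ultracentrifugation. Proteins were quantified by TMT10 LC-MS/MS; the value is the NP40-soluble abundance relative to the NP40-processed vehicle, from 3 independent experiments.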
smiles,measurement,setting,value
Nc1nc2c(ncn2[C@@H]2O[C@H](COP(=O)(O)OP(=O)(O)OP(=O)(O)O)[C@@H](O)[C@H]2O)c(=O)[nH]1 [guanosine triphosphate],NP40-soluble protein abundance,concentration: 0.1mM,1.02 ± 0.025
same,NP40-soluble protein abundance,concentration: 0.5mM,1.03 ± 0.045
same,NP40-soluble protein abundance,concentration: 1mM,1.03 ± 0.013
same,NP40-soluble protein abundance,concentration: 2mM,1.02 ± 0.043
same,NP40-soluble protein abundance,concentration: 4mM,0.991 ± 0.03
same,NP40-soluble protein abundance,concentration: 6mM,1.01 ± 0.043
same,NP40-soluble protein abundance,concentration: 8mM,1.02 ± 0.018
same,NP40-soluble protein abundance,concentration: 10mM,0.952 ± 0.042

# Exported tab-delimited: part of the list above
smiles	measurement	setting	value
Nc1nc2c(ncn2[C@@H]2O[C@H](COP(=O)(O)OP(=O)(O)OP(=O)(O)O)[C@@H](O)[C@H]2O)c(=O)[nH]1 [guanosine triphosphate]	NP40-soluble protein abundance	concentration: 6mM	1.01 ± 0.043
same	NP40-soluble protein abundance	concentration: 8mM	1.02 ± 0.018
